# Test results reported in PubChem BioAssay AID1487 (National Center for Advancing Translational Sciences (NCATS), 2009).
# This is one part of the list. Shown are side measurements of this screen, not its main read-out; they come without a call. The list favours compounds with an active or inconclusive main result. Words in brackets tell the shape of the fitted curve; partial curves, single points and poor fits give uncertain potencies.
# Assay: qHTS Assay for Modulators of Lamin A Splicing
# Conditions: HeLa LMNA splicing GFP/RFP minigene ratio, 48 h
# Text: NCGC Assay Overview: Hutchinson-Gilford Progeria Syndrome (HGPS) is a pediatric premature aging disease caused by a spontaneous mutation in the lamin A/C (LMNA) gene. The mutation activates a cryptic splice site in the LMNA pre-mRNA which results in production of a pre-lamin A protein that cannot be processed properly. The mutant protein accumulates in the nucleus and negatively affects numerous cellular functions. Correction of the splicing defect in HGPS patient cells using a targeted oligonucleotide (exo11) leads to reversal of the cellular disease phenotypes. To identify small molecule modulators of aberrant LMNA splicing, a homogenous assay was constructed in HeLa cells that used a GFP containing minigene to report on correction of aberrant splicing in lamin A and a RFP (DsRed2) to report on cell viability, uniformity and nonspecific effects on the assay signal. This assay was adapted to laser-scanning microplate cytometry (Acumen, TTP Labtech) where miniaturization of the assay to a 1,536-well plate format was possible. References: Bowen, W. P.; Wylie, P. G. Application of Laser-Scanning Fluorescence Microplate Cytometry in High Content Screening. Assay Drug Dev Technol 2006;4:209-221. Scaffidi P, Misteli T. Reversal of the cellular phenotype in the premature aging disease Hutchinson-Gilford progeria syndrome. Nat.
# NCGC Assay Protocol Summary: Reagents/Controls: Stable clones expressing DsRed2 and lamin A-EGFP were generated by Cell and Molecular Technologies in S3 HeLa cells. HeLa cells were prepared for the assay when they were 70-90% confluent. The cells were counted and resuspended in Opti-MEM I (no phenol red; Gibco), 2% FBS, 1% penicillin/ streptomycin (Gibco) at concentration of 120 cells/uL concentration. The suspension was passed through a Falcon basket filter with pore size 40um (Beckton Dickson). Control titrations: column […] 1536-well plate contained a sixteen point titration (1:2 dilutions) in duplicate of ancitabine (Sigma: A8598) beginning at 40 uM final concentration. Column 2 contained a sixteen point titration (1:2 dilutions) of cycloheximide beginning at 1.4 mM final concentration. Column 3 contained ancitabine at 40 uM and column 4 contained was the vehicle control (0.5% DMSO final concentration). Assay Steps: 5 uL of HeLa cells were plated in Aurora LoBase black clear bottom (cyclic-olefin polymer) 1536-well plates at a final density of 600 cells/well. Controls and library compounds were added with a 1536-well pin array using the Kalypsys pin-tool. The plates were then incubated for 48 hrs in a cell-culture incubator (37 °C; 5% CO2, 98% humidity). Following incubation the plates were read on the Acumen Explorer using the 488 nm laser. Data was collected on objects between 10 and 100 um in size. Cell objects were defined by a 15 um width x 10 um depth filter. The ratio of the total object intensity in PMT1 (500-530 nm emission; GFP) over PMT3 (575-640 nm emission; RFP) was calculated for analysis. Keywords: NIH Roadmap, MLSCN, MLI, MLSMR, qHTS, NCGC, lamin A, Progeria, RNA splicing.
# [1] = measured here: GFP splicing reporter channel
# [2] = measured here: RFP viability control channel
structure (smiles),measurement,setting,value
CC(C)OC(=O)NCCOC(=O)Nc1ccc(Cl)c(Cl)c1,AC50,[1],"14.1 µM [rising, single point]"
same,AC50,[2],"35.5 µM [rising, single point]"
CCc1cc(=O)[nH]c(SCc2nc(-c3cccc(Cl)c3)no2)n1,AC50,[1],"35.5 µM [falling, single point]"
O=C(COCc1cc(-c2cccs2)on1)NCc1ccc(F)cc1,AC50,[2],"0.0447 µM [falling, full curve, poor fit]"
O=C(Nc1ccc(Cl)cc1)c1ccc(-n2cnnc2)cc1,AC50,[2],"0.708 µM [falling, single point]"
Cc1ccc(Cl)cc1N1CCN(S(=O)(=O)c2ccc3c(c2)C(C(C)C)C(=O)N3)CC1 (centres undefined),AC50,[1],"6.31 µM [rising, partial curve, poor fit]"
C=CCN1C2CCCC1CC(NC(=S)Nc1ccc(Cl)cc1)C2 (centres undefined),AC50,[1],"0.178 µM [falling, full curve, poor fit]"
CCOc1ccc(NC(=O)CS(=O)(=O)c2cn(CC)c3ccccc23)cc1,AC50,[1],"3.55 µM [falling, single point]"
CCn1c(=O)c(C(=O)Nc2nc3ccccc3[nH]2)c(O)c2ccccc21,AC50,[2],"4.47 µM [rising, single point]"
CC(=O)Nc1ccc(OCC(O)Cn2c(C(C)C)nc3ccccc32)cc1 (centres undefined),AC50,[2],"0.0282 µM [falling, full curve, poor fit]"
O=C(c1ccc(Cl)cc1)C1CCN(C(=O)NC2CCCCC2)CC1,AC50,[2],"14.1 µM [rising, partial curve, poor fit]"
COc1cc(C(=O)Oc2c(CN3CCOCC3)cc(Cl)c3cccnc23)cc(OC)c1OC,AC50,[2],"8.91 µM [rising, partial curve, poor fit]"
CC1Oc2ccccc2N(CC(=O)NCC2CCCO2)C1=O (centres undefined),AC50,[2],"0.00447 µM [rising, full curve, poor fit]"
COc1ccc(NS(=O)(=O)c2ccc3nc(COc4ccc(Cl)c(C)c4)[nH]c3c2)cc1,AC50,[2],"35.5 µM [rising, single point]"
N#CC(c1ccc(Cl)cc1)c1ccc2c(C(F)(F)F)cc(C(F)(F)F)nc2n1 (centres undefined),AC50,[2],"3.16 µM [rising, single point]"
COc1ccc(C2C3CCCCC3(O)CCN2C(=O)c2cccs2)cc1 (centres undefined),AC50,[1],"0.316 µM [rising, full curve]"
Cc1c(Cl)cccc1-c1ccc(/C=N/n2cnnc2)o1,AC50,[2],"10 µM [falling, partial curve]"
COc1cccc(Nc2nc3ccccc3nc2NS(=O)(=O)c2cccs2)c1,AC50,[1],"17.8 µM [falling, partial curve]"
same,AC50,[2],"25.1 µM [falling, single point]"
CCc1cc(=O)oc2c(C)c(OCC(=O)N3CCCc4ccccc43)ccc12,AC50,[2],"35.5 µM [rising, single point]"
COc1cccc(CNC(=O)c2cc3c(=O)n(Cc4cccnc4)ccc3nc2C)c1,AC50,[2],"35.5 µM [rising, single point]"
CCc1ccccc1Nc1ncnc2c1cnn2-c1ccc(C)cc1C,AC50,[1],"2.82 µM [falling, partial curve]"
COc1ccc(C(=O)Nc2nnc(S(=O)(=O)N(C)c3ccc(C)cc3)s2)cc1,AC50,[1],"17.8 µM [rising, partial curve]"
same,AC50,[2],"15.8 µM [rising, partial curve]"
Fc1ccc2[nH]c3c(N4CCN(c5ccccc5)CC4)ncnc3c2c1,AC50,[1],"3.16 µM [rising, full curve]"
same,AC50,[2],"2.82 µM [rising, full curve]"
CCOc1ccc(Br)cc1S(=O)(=O)N1CCC(C(=O)O)CC1,AC50,[2],"0.00794 µM [falling, full curve, poor fit]"
COc1ccccc1N(CC(=O)N/N=C/c1c(O)ccc2ccccc12)S(C)(=O)=O,AC50,[2],"31.6 µM [rising, single point]"
O=C(NCCN1CCOCC1)Nc1ccc(Cl)cc1Cl,AC50,[1],"35.5 µM [falling, single point]"
same,AC50,[2],"35.5 µM [falling, single point]"
COc1ccc(N2CCN(C(=O)c3c(-c4ccccc4)noc3C)CC2)cc1,AC50,[2],"22.4 µM [rising, single point]"
Cc1ccc(NC(=S)NNC(=O)c2ccc(N3CCOCC3)c([N+](=O)[O-])c2)cc1Cl,AC50,[1],"31.6 µM [rising, single point]"
same,AC50,[2],"31.6 µM [rising, single point]"
Cc1ccc(O)c(N=Cc2cc(Cc3ccccc3)cc([N+](=O)[O-])c2O)c1,AC50,[1],"0.0355 µM [falling, full curve, poor fit]"
CC1=C(C(=O)Nc2ccccc2)C(c2cc(Br)ccc2F)n2ncc(C(=O)Nc3ccccc3)c2N1 (centres undefined),AC50,[1],"0.01 µM [falling, full curve, poor fit]"
same,AC50,[2],"0.01 µM [falling, full curve, poor fit]"
COc1cccc(NC(=O)N(Cc2cc3cc(C)cc(C)c3[nH]c2=O)CC2COCCO2)c1 (centres undefined),AC50,[2],"11.2 µM [rising, partial curve]"
CC1CN(C(=S)SCC(=O)c2ccc(Cl)cc2)CC(C)O1 (centres undefined),AC50,[1],"11.2 µM [rising, single point]"
same,AC50,[2],"15.8 µM [rising, partial curve]"
O=C(Nc1nc(COc2ccccc2)cs1)c1ccccc1F,AC50,[1],"31.6 µM [rising, single point]"
same,AC50,[2],"31.6 µM [rising, single point]"
Cc1c(C(=O)OCC(C)C)[nH]c2c1C(=O)CC(c1cccs1)C2 (centres undefined),AC50,[2],"1.58 µM [rising, full curve]"
CC(C)=C1C2CCC1C1C(=O)N(CCc3ccccc3)C(=O)C21 (centres undefined),AC50,[1],"15.8 µM [rising, single point]"
same,AC50,[2],"14.1 µM [rising, single point]"
O=C(Nc1cccc(-c2cn3ccccc3n2)c1)c1ccccc1,AC50,[1],"0.0141 µM [falling, full curve, poor fit]"
same,AC50,[2],"0.02 µM [falling, full curve]"
COc1cc(/C=C2/NC(=O)N(Cc3ccccc3F)C2=O)ccc1Oc1ccc([N+](=O)[O-])cn1,AC50,[1],"2.82 µM [rising, full curve]"
same,AC50,[2],"17.8 µM [rising, single point]"
Cc1ccc2c(c1)c(=O)c(Br)c(C)n2Cc1ccccc1,AC50,[1],"0.141 µM [rising, full curve, poor fit]"
same,AC50,[2],"25.1 µM [rising, partial curve, poor fit]"
CCOC(=O)C1=C(N)N(c2ccc(C)cc2)C2=C(C(=O)CCC2)C1c1cccs1 (centres undefined),AC50,[2],"12.6 µM [rising, partial curve]"
COc1ccccc1N(CC(=O)NCc1ccc(F)cc1)C(=O)CCC(=O)Nc1ccccn1,AC50,[1],"1.58 µM [falling, single point]"
COc1ccc(-n2cnc3sc4c(c3c2=O)CCCC4)cc1,AC50,[2],"11.2 µM [rising, partial curve, poor fit]"
O=c1c(-c2ccccc2)c(O)c2cccc3c2n1CCC3,AC50,[2],"0.0447 µM [falling, full curve, poor fit]"
Clc1ccc(CON/C=N/c2ncnc3sccc23)c(Cl)c1,AC50,[2],"10 µM [rising, partial curve]"
O=C(COc1ccc(Cl)cc1)NCC(c1ccco1)S(=O)(=O)c1ccc(Cl)cc1 (centres undefined),AC50,[1],"35.5 µM [falling, single point]"
Cn1ccnc1C(=O)c1cc(SCC(=O)NCc2ccccc2)nc2ccccc12,AC50,[1],"6.31 µM [rising, single point]"
same,AC50,[2],"4.47 µM [rising, full curve, poor fit]"
O=[N+]([O-])c1ccc(/C=N/n2cnc3ccccc32)s1,AC50,[1],"35.5 µM [falling, single point]"
Cn1c(=O)c2c(nc(NCc3ccc4c(c3)OCO4)n2Cc2ccc(F)cc2)n(C)c1=O,AC50,[1],"35.5 µM [falling, single point]"
same,AC50,[2],"35.5 µM [falling, single point]"
COc1ccc(N(C)S(=O)(=O)c2cccc(C(=O)OC(C(=O)Nc3cc(C)cc(C)c3)c3ccccc3)c2)cc1 (centres undefined),AC50,[1],"7.08 µM [rising, partial curve, poor fit]"
same,AC50,[2],"0.355 µM [rising, full curve, poor fit]"
Cc1cc(C)cc(N(CC(=O)NC(C)(C)C)C(=O)CNC(=O)c2cccs2)c1,AC50,[1],"1.26 µM [falling, partial curve, poor fit]"
same,AC50,[2],"0.316 µM [falling, full curve, poor fit]"
CCOC(=O)c1sc2c(c1C)C(c1cccs1)C1=C(CCCC1=O)N2 (centres undefined),AC50,[1],"20 µM [rising, single point]"
same,AC50,[2],"22.4 µM [rising, single point]"
CC(C)CNC(=O)CSc1nc2scc(-c3ccccc3)c2c(=O)[nH]1,AC50,[1],"0.141 µM [rising, full curve]"
same,AC50,[2],"14.1 µM [rising, partial curve]"
COC(=O)c1c(-c2ccccc2)c(-c2ccccc2)nn(C)c1=O,AC50,[2],"1.12 µM [falling, full curve, poor fit]"
COCc1cc(Sc2ccc(Cl)cc2Cl)nc(-c2ccccc2)n1,AC50,[2],"0.0224 µM [rising, full curve, poor fit]"
Cc1[nH]n(-c2ccccc2)c(=O)c1/C=N/Nc1nncc(-c2ccccc2)n1,AC50,[2],"11.2 µM [rising, partial curve, poor fit]"
O=C1OCCN1CCNCc1cn(-c2ccc(F)cc2)nc1-c1ccccc1Cl,AC50,[1],"0.00891 µM [falling, full curve, poor fit]"
same,AC50,[2],"14.1 µM [falling, partial curve, poor fit]"

# Retrieved one by one from above, three records:
structure (smiles),measurement,setting,value
CC1CN(C(=S)SCC(=O)c2ccc(Cl)cc2)CC(C)O1 (centres undefined),AC50,[2],"15.8 µM [rising, partial curve]"
CC(C)CNC(=O)CSc1nc2scc(-c3ccccc3)c2c(=O)[nH]1,AC50,[1],"0.141 µM [rising, full curve]"
CC(C)OC(=O)NCCOC(=O)Nc1ccc(Cl)c(Cl)c1,AC50,[1],"14.1 µM [rising, single point]"

# As a working copy, some entries already given.
structure (smiles),measurement,setting,value
O=C(Nc1ccc(Cl)cc1)c1ccc(-n2cnnc2)cc1,AC50,[2],"0.708 µM [falling, single point]"
Cc1ccc(Cl)cc1N1CCN(S(=O)(=O)c2ccc3c(c2)C(C(C)C)C(=O)N3)CC1 (centres undefined),AC50,[1],"6.31 µM [rising, partial curve, poor fit]"
